PubChem BioAssay AID1259314 – Drosophila RNAi Screening Center, 2017
The whole screen tested about 3,100 reagents; this is an unselected part. 289 of them (9.3%) were called active. 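Active includes both higher and lower ATP than plate average; check the z-score sign for direction.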 Not stated in the record: the amount of reagent.

- Aim: 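Transmembrane protein genes affecting ATP after manganese overload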 (primary screen)
- Cells: Drosophila S2R+ cells
- Reagent: long dsRNA against Drosophila genes
- Time to read-out: 5 days (4 days knock-down, then 1 day metal exposure)
- Treatment: manganese chloride added to 15 mM for 24 hours
- Read-out: 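Cellular ATP measured by luciferase light, scaled to the plate mean, averaged across replicates and z-scored over plates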
- Direction: mean ATP z-score: higher = more ATP than the plate average, more viable cells under manganese
- Hit rule: 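Called active when the mean ATP z-score is above 1.5 or below -1.5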
- Meaning of the calls: active = strong ATP change, up or down; inactive = no strong ATP change

{"target":"GABPI (beta4GalNAcTB pilot)","dsRNA":"DRSC00494","mean ATP z-score":0.454,"activity call":"inactive"}
{"target":"GABPI (beta4GalNAcTB pilot)","dsRNA":"DRSC27495","mean ATP z-score":-0.648,"activity call":"inactive"}
{"target":"CG4462","dsRNA":"DRSC15583","mean ATP z-score":-0.777,"activity call":"inactive"}
{"target":"CG4462","dsRNA":"DRSC25650","mean ATP z-score":1.54,"activity call":"active"}
{"target":"CG6836","dsRNA":"DRSC10722","mean ATP z-score":0.529,"activity call":"inactive"}
{"target":"CG6836","dsRNA":"DRSC26906","mean ATP z-score":0.0643,"activity call":"inactive"}
{"target":"Tim17a2","dsRNA":"DRSC12252","mean ATP z-score":0.518,"activity call":"inactive"}
{"target":"Tim17a2","dsRNA":"DRSC23837","mean ATP z-score":-0.735,"activity call":"inactive"}
{"target":"CG5262","dsRNA":"DRSC11773","mean ATP z-score":-0.084,"activity call":"inactive"}
{"target":"CG5262","dsRNA":"DRSC39543","mean ATP z-score":0.148,"activity call":"inactive"}
{"target":"mge (maggie)","dsRNA":"DRSC08721","mean ATP z-score":-2,"activity call":"active"}
{"target":"AstC-R1 (Allatostatin C receptor 1)","dsRNA":"DRSC10799","mean ATP z-score":0.226,"activity call":"inactive"}
{"target":"AstC-R1 (Allatostatin C receptor 1)","dsRNA":"DRSC29648","mean ATP z-score":-0.248,"activity call":"inactive"}
{"target":"MFS10 (Major Facilitator Superfamily Transporter 10)","dsRNA":"DRSC19888","mean ATP z-score":0.964,"activity call":"inactive"}
{"target":"MFS10 (Major Facilitator Superfamily Transporter 10)","dsRNA":"DRSC26960","mean ATP z-score":1.07,"activity call":"inactive"}
{"target":"MFS3 (Major Facilitator Superfamily Transporter 3)","dsRNA":"DRSC00664","mean ATP z-score":-0.817,"activity call":"inactive"}
{"target":"MFS3 (Major Facilitator Superfamily Transporter 3)","dsRNA":"DRSC28601","mean ATP z-score":-0.313,"activity call":"inactive"}
{"target":"CG3638","dsRNA":"DRSC18533","mean ATP z-score":-0.243,"activity call":"inactive"}
{"target":"CG3638","dsRNA":"DRSC25349","mean ATP z-score":1.96,"activity call":"active"}
{"target":"ppk17 (pickpocket 17)","dsRNA":"DRSC02252","mean ATP z-score":0.698,"activity call":"inactive"}
{"target":"ppk17 (pickpocket 17)","dsRNA":"DRSC39748","mean ATP z-score":-0.32,"activity call":"inactive"}
{"target":"CG17167","dsRNA":"DRSC20902","mean ATP z-score":0.237,"activity call":"inactive"}
{"target":"CG17167","dsRNA":"DRSC20903","mean ATP z-score":-0.639,"activity call":"inactive"}
{"target":"Sr-CIV (Scavenger receptor class C, type IV)","dsRNA":"DRSC00575","mean ATP z-score":0.478,"activity call":"inactive"}
{"target":"Sr-CIV (Scavenger receptor class C, type IV)","dsRNA":"DRSC24930","mean ATP z-score":-0.283,"activity call":"inactive"}
{"target":"CG8785","dsRNA":"DRSC07266","mean ATP z-score":1.25,"activity call":"inactive"}
{"target":"CG7384","dsRNA":"DRSC03053","mean ATP z-score":0.0794,"activity call":"inactive"}
{"target":"KaiR1D (Kainate-type ionotropic glutamate receptor subunit 1D)","dsRNA":"DRSC15516","mean ATP z-score":-0.449,"activity call":"inactive"}

Next part (5 carried over from the part before).
{"target":"Sr-CIV (Scavenger receptor class C, type IV)","dsRNA":"DRSC00575","mean ATP z-score":0.478,"activity call":"inactive"}
{"target":"Sr-CIV (Scavenger receptor class C, type IV)","dsRNA":"DRSC24930","mean ATP z-score":-0.283,"activity call":"inactive"}
{"target":"CG8785","dsRNA":"DRSC07266","mean ATP z-score":1.25,"activity call":"inactive"}
{"target":"CG7384","dsRNA":"DRSC03053","mean ATP z-score":0.0794,"activity call":"inactive"}
{"target":"KaiR1D (Kainate-type ionotropic glutamate receptor subunit 1D)","dsRNA":"DRSC15516","mean ATP z-score":-0.449,"activity call":"inactive"}
{"target":"CG17600","dsRNA":"DRSC20640","mean ATP z-score":0.0639,"activity call":"inactive"}
{"target":"CG17600","dsRNA":"DRSC22753","mean ATP z-score":0.168,"activity call":"inactive"}
{"target":"CG17600","dsRNA":"DRSC27203","mean ATP z-score":0.0379,"activity call":"inactive"}
{"target":"CG8112","dsRNA":"DRSC16377","mean ATP z-score":0.194,"activity call":"inactive"}
{"target":"CG8112","dsRNA":"DRSC39422","mean ATP z-score":-0.175,"activity call":"inactive"}
{"target":"spdo (sanpodo)","dsRNA":"DRSC13988","mean ATP z-score":-1.38,"activity call":"inactive"}
{"target":"spdo (sanpodo)","dsRNA":"DRSC24230","mean ATP z-score":-0.244,"activity call":"inactive"}
{"target":"Ykt6 (YKT6 v-SNARE)","dsRNA":"DRSC26017","mean ATP z-score":-1.95,"activity call":"active"}
{"target":"VhaM9.7-b (Vacuolar H[+] ATPase M9.7 subunit b)","dsRNA":"DRSC11841","mean ATP z-score":-0.398,"activity call":"inactive"}
{"target":"CG30394","dsRNA":"DRSC04074","mean ATP z-score":-0.322,"activity call":"inactive"}
{"target":"CG30394","dsRNA":"DRSC04260","mean ATP z-score":-0.254,"activity call":"inactive"}
{"target":"ste24b (ste24b prenyl protease type I)","dsRNA":"DRSC07315","mean ATP z-score":-1.26,"activity call":"inactive"}
{"target":"ste24b (ste24b prenyl protease type I)","dsRNA":"DRSC24340","mean ATP z-score":-0.64,"activity call":"inactive"}
{"target":"NKCC (sodium potassium chloride cotransporter)","dsRNA":"DRSC12140","mean ATP z-score":1.94,"activity call":"active"}
{"target":"NKCC (sodium potassium chloride cotransporter)","dsRNA":"DRSC12311","mean ATP z-score":-1.2,"activity call":"inactive"}
{"target":"Tsp42Ea (Tetraspanin 42Ea)","dsRNA":"DRSC04982","mean ATP z-score":2.94,"activity call":"active"}
{"target":"Tsp42Ea (Tetraspanin 42Ea)","dsRNA":"DRSC06792","mean ATP z-score":2.9,"activity call":"active"}
{"target":"ppk18 (pickpocket 18)","dsRNA":"DRSC02216","mean ATP z-score":1.03,"activity call":"inactive"}
{"target":"ppk18 (pickpocket 18)","dsRNA":"DRSC02217","mean ATP z-score":2.58,"activity call":"active"}
{"target":"ppk18 (pickpocket 18)","dsRNA":"DRSC39853","mean ATP z-score":0.17,"activity call":"inactive"}
